Results from patent publication US20260035459A1, “HUMANIZED CHIMERIC ANTIGEN RECEPTORS TARGETING THE B-CELL RECEPTOR OF CHRONIC LYMPHOCYTIC LEUKEMIA AND USES THEREOF” (AVA LIFESCIENCE GMBH, priority 2022, published 2026).
No constants are given. Whether binding was seen depends on the method and setting. Some binding calls cover weakened binding; strength is not graded here.

The chains behind the UniProt entries cited, without tags or fusion partners. Where a name states a change or a piece, a line headed by the entry shows the natural chain unless it says otherwise.
UniProt P01871: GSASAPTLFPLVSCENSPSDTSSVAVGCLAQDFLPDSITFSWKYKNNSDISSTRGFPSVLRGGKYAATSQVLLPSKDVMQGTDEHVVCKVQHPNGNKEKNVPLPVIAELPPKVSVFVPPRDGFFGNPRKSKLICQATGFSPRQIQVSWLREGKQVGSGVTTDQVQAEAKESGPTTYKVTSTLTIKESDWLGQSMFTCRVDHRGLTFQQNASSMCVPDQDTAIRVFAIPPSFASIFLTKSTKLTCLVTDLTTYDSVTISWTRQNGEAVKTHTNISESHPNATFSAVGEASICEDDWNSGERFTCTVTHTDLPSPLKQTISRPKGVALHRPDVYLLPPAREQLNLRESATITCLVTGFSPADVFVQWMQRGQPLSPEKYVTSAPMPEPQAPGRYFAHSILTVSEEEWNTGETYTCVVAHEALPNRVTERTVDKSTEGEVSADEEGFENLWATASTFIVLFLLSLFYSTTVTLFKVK

Target: membrane-bound IGHV3-21/IGLV3-21^R110 BCR expressed on triple knockout (TKO) cells (human) (UniProt P01871)
Assay: FACS binding assay on BCR-expressing TKO cells, with fluorescently labeled anti-mouse IgG

binding: binds
B1: murine monoclonal antibody mAb01-01 (antibody, V domains shown)
VH: QVQLQQSGPGLVQPSQSLSITCTVSGFSLTSYGIHWVRQSPGKGLEWLGVIWRGGGTDSNAAFMSRLSITKDNSKSQVFFKMNSLQADDTAIYYCARSRYDEEESMNYWGQGTSVTVSS
VL: QIVLTQSPASLSASVGETVTITCRASGNIHSYLAWYQQKQGKSPQLLVYNAKTLADGVPSRFSGSGSGTQYSLKINSLQPEDFGSYYCQHFWNTPPTFGAGTKLELK
